{"sequences": {"note": "Protein sequences, listed by entry. Tags and fused reporters are not part of them. Lines headed by an entry give the natural chain unless they say otherwise; changes in a name come on top.", "UniProt P18054": "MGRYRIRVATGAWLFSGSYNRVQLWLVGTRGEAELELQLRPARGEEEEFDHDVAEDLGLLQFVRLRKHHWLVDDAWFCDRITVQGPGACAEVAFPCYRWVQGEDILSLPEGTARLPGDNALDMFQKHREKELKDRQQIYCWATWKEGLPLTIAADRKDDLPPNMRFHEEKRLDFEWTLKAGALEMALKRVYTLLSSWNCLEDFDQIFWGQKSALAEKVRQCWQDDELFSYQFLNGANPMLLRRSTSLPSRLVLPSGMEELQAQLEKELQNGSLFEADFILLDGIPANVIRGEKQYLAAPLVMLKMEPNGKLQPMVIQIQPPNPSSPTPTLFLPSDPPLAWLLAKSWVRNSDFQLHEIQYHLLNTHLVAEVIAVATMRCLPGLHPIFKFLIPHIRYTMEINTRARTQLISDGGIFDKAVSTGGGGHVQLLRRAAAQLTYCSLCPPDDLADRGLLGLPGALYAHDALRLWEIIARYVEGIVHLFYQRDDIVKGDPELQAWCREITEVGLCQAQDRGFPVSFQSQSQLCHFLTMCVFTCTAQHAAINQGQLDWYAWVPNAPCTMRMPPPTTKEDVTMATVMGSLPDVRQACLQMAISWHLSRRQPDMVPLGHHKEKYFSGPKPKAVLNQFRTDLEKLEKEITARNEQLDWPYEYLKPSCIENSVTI"}, "source": "PubChem BioAssay AID1671190", "about": "(National Center for Advancing Translational Sciences (NCATS), 2021)", "note": "Several values for one entry are separate records, joined by “and”; a condition that tells them apart may be missing. Equal values may be shown once. The campaign covered roughly 580,000 compounds. About 6,100 (1.1%) were called active. This list was built around the results that the source calls inconclusive (neither active nor inactive); the mix of calls is not that of the screen. Calls come from the whole dose curve; as a rule, active = well fitted inhibition curve with a large enough effect; inconclusive = small, poorly fitted or top-dose-only effect, or another doubt; inactive = no such curve, though single readings can be large or run the other way. A potency beside an inconclusive call is a rough fit, not a confirmed value. % is set by controls: 0 for no effect and ±100 for the full control effect; potency is the fitted concentration of half-maximal effect."}
{"molecular_target": "Polyunsaturated fatty acid lipoxygenase ALOX12 (Homo sapiens) (UniProt P18054)", "experiment": "Primary qHTS assay for inhibitors of human arachidonate 12S-lipoxygenase (ALOX12): Round 2", "conditions": "purified 12hLO, xylenol orange hydroperoxide absorbance; activity change, negative = inhibition: at 108 µM (top of the series) unless noted", "procedure,_shortened": "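Purified human 12hLO (150 nM final) in 25 mM Hepes, 0.01% Triton X-100, pH 7.0 was preincubated 15 min at room temperature with compound. Then 40 uM arachidonic acid was added, 30 min. Hydroperoxide was read by Fe-XO absorbance ratio 573/405 nm.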"}
{"smiles": "CNC(=O)C(NC(=O)c1c(F)cccc1F)C(C)C", "note": "(stereo not given)", "Potency": "inactive"}
{"smiles": "COc1cccc(CNC(=O)CCn2cnc3ccccc3c2=O)c1", "activity change, negative = inhibition": "inconclusive: -30.2% [inhibitor]"}
{"smiles": "COc1cccc(-c2cc(C(F)(F)F)n3ncc(C(=O)N4CCc5ccccc5C4)c3n2)c1", "Potency": "inconclusive: 3.98 µM [inhibitor, full curve, poor fit]"}
{"smiles": "COc1cccc(-c2csc(N3CCN(C(=S)Nc4ccccc4)CC3)n2)c1", "Potency": "inactive"}
{"smiles": "O=C(c1cccc(-n2cnnc2)c1)N1CCOC(c2ccc(F)cc2)C1", "note": "(stereo not given)", "Potency": "inactive"}
{"smiles": "O=C(CCN1C(=O)c2ccccc2Sc2ncccc21)Nc1ccc(F)cc1", "Potency": "inactive"}
{"smiles": "O=C(Cn1c[n+](CC(=O)c2ccc([N+](=O)[O-])cc2)cn1)c1ccc([N+](=O)[O-])cc1", "Potency": "inconclusive: 44.7 µM [inhibitor, partial curve, poor fit]"}
{"smiles": "Cc1ccc2sc(C)[n+](CCC(C)S(=O)(=O)[O-])c2c1", "note": "(stereo not given)", "Potency": "inconclusive: 0.447 µM [inhibitor, full curve, poor fit]"}
{"smiles": "CC(=O)Oc1cc2c(=O)c3ccccc3sc2cc1C", "Potency": "inactive"}
{"smiles": "O=C1CCCc2nc(N3CCN(c4ccccc4)CC3)ncc21", "Potency": "inactive"}
{"smiles": "O=C(CSc1ccc(-c2ccccc2)nn1)N1CCN(c2ccccc2)CC1", "Potency": "inactive"}
{"smiles": "CCCNc1nc(N2CCOCC2)nc(N2CCOCC2)n1", "Potency": "inactive"}
{"smiles": "CCC(N)(CC)c1cn(CC2CCCN(S(C)(=O)=O)C2)nn1", "note": "(stereo not given)", "Potency": "active: 20 µM"}
{"smiles": "CCOC(=O)c1c(NC(=O)c2ccc(S(=O)(=O)N(C)CC3CCCO3)cc2)sc2c1CCN(C)C2", "note": "(stereo not given)", "Potency": "inconclusive: 56.2 µM [inhibitor, partial curve, poor fit]"}
{"smiles": "Cc1ccc(OCCCN2CCOCC2)c([N+](=O)[O-])c1", "Potency": "inconclusive: 0.1 µM [inhibitor, full curve, poor fit]"}
{"smiles": "Cn1c(=O)c2c(nc(NCCc3ccccc3)n2Cc2ccc(F)cc2)n(C)c1=O", "Potency": "inactive"}
{"smiles": "CCC(c1nnnn1Cc1ccco1)N(CCN1CCOCC1)Cc1cc2cc(C)ccc2[nH]c1=O", "note": "(stereo not given)", "Potency": "inconclusive: 7.08 µM [inhibitor, partial curve, poor fit]"}
{"smiles": "CN(c1cccc(NC(=O)Nc2cccc(Cl)c2)c1)S(C)(=O)=O", "Potency": "inconclusive: 112 µM [inhibitor, single point]"}
{"smiles": "COCCN(C(=O)CC1CCCCC1)c1c(N)n(CC(C)C)c(=O)[nH]c1=O", "Potency": "inconclusive: 28.2 µM [inhibitor, single point]"}
{"smiles": "COc1cc(/C=C2/C(=N)N3C(SC)=NSC3=NC2=O)ccc1OC(=O)c1ccco1", "Potency": "inconclusive: 79.4 µM [inhibitor, partial curve, poor fit]"}
{"smiles": "CN(CCC#N)C(=O)COC(=O)c1nn(Cc2ccccc2)c(=O)c2ccccc12", "Potency": "inconclusive: 50.1 µM [inhibitor, partial curve, poor fit]"}
{"smiles": "Cc1ccc(NC(=O)c2nc[nH]c2C(=O)NC2CCN(C(=O)OC(C)(C)C)CC2)cc1", "Potency": "inactive"}
{"smiles": "CS(=O)Cc1cccc(C(=O)Nc2nc(-c3ccccn3)cs2)c1", "note": "(stereo not given)", "Potency": "inconclusive: 31.6 µM [inhibitor, partial curve, poor fit]"}
{"smiles": "O=C(Cc1cccc2cccnc12)NCCc1ccccn1", "Potency": "inconclusive: 2.24 µM [inhibitor, full curve, poor fit]"}
{"smiles": "COc1cccc(Cn2c(=O)oc3ccccc32)c1", "Potency": "inactive"}
{"smiles": "Cc1ccc(C(=O)Nc2cccc3[nH]c(C(F)(F)F)nc23)cc1", "Potency": "inactive"}
{"smiles": "CCCCc1ccc(NC(=O)CSc2nc(=O)[nH]c3c2CCCC3)cc1", "Potency": "inconclusive: 79.4 µM [inhibitor, partial curve, poor fit]"}
{"smiles": "CC1CCC/C(=N/Nc2nc3ccccc3s2)C1", "note": "(stereo not given)", "Potency": "inconclusive: 44.7 µM [inhibitor, partial curve, poor fit]"}
{"smiles": "CC1(C)CC2(CCCN(C(=S)Nc3ccccc3)C2)CCO1", "note": "(stereo not given)", "Potency": "inconclusive: 126 µM [inhibitor, single point]"}
{"smiles": "Cc1cccc(C2(c3cccc(C)c3)OC(=O)c3ccccc32)c1", "Potency": "inconclusive: 8.91 µM [inhibitor, partial curve, poor fit]"}
{"smiles": "COC(=O)COc1cccc(N)c1", "Potency": "active: 12.6 µM"}
{"smiles": "COc1cc(CNC(=O)c2ccc3nc(Cc4ccccc4F)oc3c2)cc(OC)c1OC", "Potency": "inactive"}
{"smiles": "CCOc1ccc(S(=O)(=O)N2CCN(Cc3nc4ccc(C)cc4o3)CC2)cc1", "Potency": "inactive"}
{"smiles": "O=C(/C=C/c1cccs1)NC(=S)NNC(=O)c1ccccc1O", "Potency": "inconclusive: 15.8 µM [inhibitor, full curve]"}
{"smiles": "COc1ccc2c(CN(C)CCOc3cc(C)cc(C)c3)cc(=O)oc2c1", "Potency": "inactive"}
{"smiles": "Cc1ccccc1CSc1nc2nccnc2c(=O)n1Cc1ccc2c(c1)OCO2", "Potency": "inconclusive: 35.5 µM [inhibitor, partial curve, poor fit]"}
{"smiles": "Oc1cc2c(cc1O)C1c3ccc(O)c(O)c3OCC1(O)C2", "note": "(stereo not given)", "Potency": "inconclusive: 968 nM [inhibitor, full curve] and inconclusive: 14.1 µM [inhibitor, partial curve, poor fit]"}
{"smiles": "CCOC(=O)Cn1cc(/C=C/[N+](=O)[O-])c2ccccc21", "Potency": "inconclusive: 35.5 µM [inhibitor, partial curve, poor fit]"}
{"smiles": "CC(C)CN1CCN(C(=O)CCC2CCN(c3cc(NC4CC4)ncn3)CC2)CC1", "Potency": "inactive"}
{"smiles": "CNc1nnc(Sc2ncccc2[N+](=O)[O-])s1", "Potency": "inconclusive: 79.4 µM [inhibitor, partial curve, poor fit]"}
{"smiles": "Cc1ccc2oc(C(=O)N(Cc3ccc(Cl)cc3)Cc3ccco3)cc(=O)c2c1", "Potency": "inconclusive: 50.1 µM [inhibitor, partial curve, poor fit]"}
{"smiles": "CCc1ccc(CN(C)C(=O)NC(c2ccc3c(c2)OCCCO3)C(C)C)cc1", "note": "(stereo not given)", "Potency": "inactive"}
{"smiles": "COc1ccc(Nc2oc(/C=C/c3ccccc3OC)nc2C#N)cc1", "Potency": "inconclusive: 126 µM [inhibitor, partial curve, poor fit]"}
{"smiles": "CCCc1[nH]c(=O)c(C#N)c2c1COC(C)(C)C2", "Potency": "inactive"}
{"smiles": "O=C1CCN(CCc2ccccc2)CCN1[C@H](COc1ccccc1)Cc1ccccc1", "Potency": "inconclusive: 79.4 µM [inhibitor, single point]"}
